PubChem BioAssay AID1224830 | NIAID – 2016

Test: 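Regulators of TLR4 signalling towards TNF-alpha in macrophage-like cells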 (primary screen)
Cells: human THP-1 monocytic leukaemia cells, TNF dual-luciferase reporter clone, PMA-differentiated to macrophage-like cells
Reagents: siRNA pool against human genes, 50 nM
Timing: LPS for 4 h, given about 3 days after siRNA transfection
Conditions: bacterial LPS (TLR4 ligand), 10 ng/ml
Measured: 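TNF firefly reporter luminescence divided by renilla, normalised to the plate median, then turned into a robust z-score for each replicate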
Reading the numbers: TNF reporter robust z-score: higher = stronger TNF reporter response to LPS
Active means: 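a well is active when its z-score exceeds 2.8 or falls below -1.5; control wells carry no call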
Shown is an unselected part of about 18,000 reagents. About 2,900 of all reagents (16%) count as active. 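Calls are made per well; low scores hint the gene aids the LPS response, high scores that it dampens it.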 The numbers tell different reagents against one gene apart. Repeated entries: four replicate wells of each siRNA pool. No sequences are given here.

PCDH8
- TNF reporter robust z-score: -1.14
- Call: inactive

PCDH8
- TNF reporter robust z-score: -1.01
- Call: inactive

PCDH8
- TNF reporter robust z-score: -1.26
- Call: inactive

PCDH8
- TNF reporter robust z-score: -0.71
- Call: inactive

GIPC3
- TNF reporter robust z-score: -1.03
- Call: inactive

GIPC3
- TNF reporter robust z-score: 0.84
- Call: inactive

GIPC3
- TNF reporter robust z-score: -0.81
- Call: inactive

GIPC3
- TNF reporter robust z-score: -0.15
- Call: inactive

RETREG1
- TNF reporter robust z-score: -0.27
- Call: inactive

RETREG1
- TNF reporter robust z-score: 1.65
- Call: inactive

RETREG1
- TNF reporter robust z-score: 1.03
- Call: inactive

RETREG1
- TNF reporter robust z-score: -1.01
- Call: inactive

NCK1
- TNF reporter robust z-score: 0.11
- Call: inactive

NCK1
- TNF reporter robust z-score: 3.41
- Call: active

NCK1
- TNF reporter robust z-score: 0.63
- Call: inactive

NCK1
- TNF reporter robust z-score: 3.49
- Call: active

FSIP2 #1
- TNF reporter robust z-score: 0.23
- Call: inactive

FSIP2 #1
- TNF reporter robust z-score: 2.43
- Call: inactive

FSIP2 #1
- TNF reporter robust z-score: 2.71
- Call: inactive

FSIP2 #1
- TNF reporter robust z-score: 2.66
- Call: inactive

FSIP2 #2
- TNF reporter robust z-score: -2.05
- Call: active

FSIP2 #2
- TNF reporter robust z-score: -1.88
- Call: active

FSIP2 #2
- TNF reporter robust z-score: -1.93
- Call: active

FSIP2 #2
- TNF reporter robust z-score: -1.19
- Call: inactive

2 of these entries in another layout.
Gene,pool no.,TNF reporter robust z-score,Call
FSIP2,2,-1.93,active
FSIP2,2,-1.19,inactive
